1 substance from publication PMC9406315 can be followed below.

Amino acid sequences for entries named in this document (tags omitted).
UniProt Q00987: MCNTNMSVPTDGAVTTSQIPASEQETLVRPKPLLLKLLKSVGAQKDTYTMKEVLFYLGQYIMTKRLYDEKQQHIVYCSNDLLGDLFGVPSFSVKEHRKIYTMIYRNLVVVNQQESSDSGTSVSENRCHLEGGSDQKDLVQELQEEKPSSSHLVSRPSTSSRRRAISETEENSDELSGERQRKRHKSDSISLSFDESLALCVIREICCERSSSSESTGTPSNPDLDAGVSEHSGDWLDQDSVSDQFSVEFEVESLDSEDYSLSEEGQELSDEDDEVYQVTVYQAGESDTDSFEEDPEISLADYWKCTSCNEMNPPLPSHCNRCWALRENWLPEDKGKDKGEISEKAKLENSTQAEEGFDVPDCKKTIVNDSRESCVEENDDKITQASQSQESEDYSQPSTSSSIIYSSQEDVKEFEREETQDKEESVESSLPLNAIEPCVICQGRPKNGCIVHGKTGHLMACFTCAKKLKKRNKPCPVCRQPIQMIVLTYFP

The assay concerns the target T1, MAGED2-Myc (UniProt Q9UNF1).
T1 sequence: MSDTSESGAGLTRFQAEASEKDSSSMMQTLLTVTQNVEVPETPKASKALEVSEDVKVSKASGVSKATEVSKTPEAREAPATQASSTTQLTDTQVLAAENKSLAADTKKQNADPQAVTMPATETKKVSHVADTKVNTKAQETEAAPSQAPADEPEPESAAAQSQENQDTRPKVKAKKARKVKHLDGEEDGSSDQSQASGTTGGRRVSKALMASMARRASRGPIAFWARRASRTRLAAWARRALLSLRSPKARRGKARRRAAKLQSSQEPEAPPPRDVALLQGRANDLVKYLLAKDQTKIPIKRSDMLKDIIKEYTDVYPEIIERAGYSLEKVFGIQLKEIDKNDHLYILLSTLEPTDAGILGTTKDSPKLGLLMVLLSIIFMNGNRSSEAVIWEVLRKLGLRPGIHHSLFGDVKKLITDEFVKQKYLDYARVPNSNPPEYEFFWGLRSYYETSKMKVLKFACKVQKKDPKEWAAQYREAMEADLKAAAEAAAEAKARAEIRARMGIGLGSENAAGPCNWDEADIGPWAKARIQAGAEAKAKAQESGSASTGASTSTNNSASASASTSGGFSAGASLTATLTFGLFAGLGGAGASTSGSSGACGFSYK
The experiment in a line: co-IP; HeLa cells transiently transfected with Gαs-HA alone or with MAGED2-Myc; lysed in TNTE buffer (20 mM Tris-HCl pH 7.4, 150 mM NaCl, 5 mM EDTA, 0.5% Triton X-100, 10% glycerol); IP with anti-Myc antibody crosslinked (BS3) to protein G magnetic beads, 1 h at room temperature; washed three times in PBS; immunoblot. On the technique in general: In western blotting, separated proteins are transferred to a membrane and probed.

These are yes or no findings as the source states them, for the method shown. In cells and extracts the contact can be indirect. Some binding calls cover weakened binding; strength is not graded here. Tags and fused reporters may be left off the sequences shown.

For the substance MDM2 (from UniProt Q00987 1-491), the binding entry is listed as “binds”.
